Library screen at single concentrations

Protein sequences, listed by entry. Tags and fused reporters are not part of them.
UniProt P9WFT3, whole entry: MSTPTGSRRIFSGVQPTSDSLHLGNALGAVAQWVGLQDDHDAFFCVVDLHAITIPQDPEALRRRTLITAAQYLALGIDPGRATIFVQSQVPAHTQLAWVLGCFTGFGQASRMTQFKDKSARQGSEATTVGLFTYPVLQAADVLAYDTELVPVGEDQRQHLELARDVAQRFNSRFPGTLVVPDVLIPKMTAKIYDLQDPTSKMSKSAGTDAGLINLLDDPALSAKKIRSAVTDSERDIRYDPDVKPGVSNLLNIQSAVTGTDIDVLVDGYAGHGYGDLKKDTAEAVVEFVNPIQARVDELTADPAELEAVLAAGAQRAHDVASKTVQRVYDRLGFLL
UniProt P9WPC5, whole entry: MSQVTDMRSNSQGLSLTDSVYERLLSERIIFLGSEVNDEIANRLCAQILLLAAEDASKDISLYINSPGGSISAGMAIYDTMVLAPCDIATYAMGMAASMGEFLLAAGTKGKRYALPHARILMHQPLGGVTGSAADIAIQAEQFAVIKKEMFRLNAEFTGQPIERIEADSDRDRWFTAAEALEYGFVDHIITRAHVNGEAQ
UniProt P9WPC3, whole entry partner: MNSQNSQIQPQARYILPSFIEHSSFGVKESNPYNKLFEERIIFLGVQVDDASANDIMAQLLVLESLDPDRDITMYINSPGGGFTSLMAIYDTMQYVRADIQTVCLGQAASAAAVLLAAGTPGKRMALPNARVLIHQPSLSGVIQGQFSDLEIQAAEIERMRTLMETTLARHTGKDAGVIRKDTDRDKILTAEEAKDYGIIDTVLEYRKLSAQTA

Measurements from “University of Dundee, Small-Polar-MMV Screening Library” (2021), ChEMBL document CHEMBL3988442.

Values are the deposited “Percent Effect”, in %. How 0% and 100% were set is not recorded. Most values in the screen are low, and negative values occur. This is an unselected part of the compounds tested.

MtTrpRS: 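Tryptophan-tRNA ligase, Mycobacterium tuberculosis (UniProt P9WFT3). Enzyme assay of tryptophanyl-tRNA synthetase; the read-out is not stated. Concentration: 10 µM. Higher most likely means stronger inhibition; the record gives no direction and few retests gave an IC50. About 65,000 compounds were tested under these conditions; 0.098% (about 64) showed 50% or more at least once.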
ClpP1P2: 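Protease assay of ClpP1P2, read by the AMC dye that it sets free. Target: ClpP1P2, Mycobacterium tuberculosis (UniProt P9WPC5 and UniProt P9WPC3). Concentration: 50 µM. Direction is inferred from only a few compounds that gave an IC50; most scored high, so higher reads as stronger inhibition. Most other retested compounds had strongly negative values. About 69,000 compounds were tested under these conditions; 0.015% (about 10) showed 50% or more at least once.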

CCc1cc(C(=O)N2CC[C@@H](c3ccc4c(c3)OCO4)[C@H](O)C2)ccn1 read MtTrpRS: 1.926%; ClpP1P2: 15.69%.
COCCNC(=O)Cn1ccc2ccc(F)cc21 read MtTrpRS: -1.573%; ClpP1P2: -16.19%.
CCN1C(=O)CC(c2ccccc2)C12CCN(CC1CCOCC1)CC2 (stereo not drawn) read MtTrpRS: -2.471%; ClpP1P2: -2.568%.
CN1CC(=O)N(c2cccc(F)c2)CC12CCNC2 (stereo not drawn) read MtTrpRS: 0.4359%; ClpP1P2: -3.58%.
CS(=O)(=O)NCCCNC(=O)c1cccnc1O read MtTrpRS: -2.439%; ClpP1P2: 6.157%.
Cc1ncsc1C(=O)NCCNC(=O)c1cccs1 read MtTrpRS: 1.548%; ClpP1P2: -23.85%.
COCCC(=O)N1CCC2(COCc3cnc(N(C)C)nc32)C1 (stereo not drawn) read MtTrpRS: -7.349%; ClpP1P2: -6.486%.
Cc1cc(CN2CCC(CNS(=O)(=O)c3ccccc3Cl)CC2)c(C)o1 read MtTrpRS: 4.917%; ClpP1P2: 3.412%.
CCOCCOc1ccccc1C(=O)N1C[C@H](C2CC2)[C@@H](N)C1 read MtTrpRS: -2.315%; ClpP1P2: 0.1943%.
CN(C)C[C@H]1OC[C@@H]2CCN(S(=O)(=O)c3cccs3)C[C@@H]21 read MtTrpRS: 7.191%; ClpP1P2: -1.923%.
O=C(c1cc(C2CCCCN2C(=O)C2CCC2)n[nH]1)N1CCOCC1 (stereo not drawn) read ClpP1P2: 12.21%.
CS(=O)(=O)CCCNC(=O)C1(c2cccc(Cl)c2)CC1 read MtTrpRS: -0.8777%; ClpP1P2: 3.987%.
c1ccc(C2CCN(c3ncnc4c3CCNC4)CC2)cc1 read MtTrpRS: 5.924%; ClpP1P2: 19.72%.
Cc1ccc(-c2nc(CC(=O)NCC(C)N3CCOCC3)cs2)o1 (stereo not drawn) read MtTrpRS: -6.757%; ClpP1P2: -1.981%.
COCC1CN(C(=O)C2=CCCCC2)Cc2cnn(CC3CC3)c21 (stereo not drawn) read MtTrpRS: -6.946%; ClpP1P2: -9.736%.
O=C(Nc1cc(N2CCOCC2)ncn1)c1cnccn1 read MtTrpRS: 0.9878%; ClpP1P2: 9.7%.
CNc1ncc(C(=O)N2CCOC(C(=O)Nc3ccccc3)C2)cn1 (stereo not drawn) read MtTrpRS: -7.236%; ClpP1P2: -25.75%.
Cn1cnc2c1CCN(Cc1ccc(C(=O)N3CCCC3)cc1)C2 read MtTrpRS: -0.3712%; ClpP1P2: 24.88%.
CCOCC(O)CN1CCN(C(=O)Cc2ccc3c(c2)CCO3)CC1 (stereo not drawn) read MtTrpRS: -1.101%; ClpP1P2: 12.94%.
CC1CN(C(=O)NCCNc2cnccn2)CCO1 (stereo not drawn) read MtTrpRS: 3.644%; ClpP1P2: -27.43%.
O=C(c1ccoc1)N1CCOCC2(CCN(C3CCOCC3)C2)C1 (stereo not drawn) read MtTrpRS: -1.798%; ClpP1P2: -7.921%.
CC(C)N1CCCc2sc(C(=O)NC3CC3)nc21 read MtTrpRS: 2.876%; ClpP1P2: -9.129%.
CCc1[nH]ncc1C(=O)N1CCCC(n2cncn2)C1 (stereo not drawn) read MtTrpRS: -0.5191%; ClpP1P2: -11.57%.
CNC(=O)N1Cc2cc(F)ccc2C2(CCN(C)CC2)C1 read MtTrpRS: -4.748%; ClpP1P2: -0.09254%.
CCNC(=O)NC[C@H]1COCc2nc3cc(OC)ccc3n21 read MtTrpRS: 1.28%; ClpP1P2: -2.74%.
CN(C)C(=O)C1(C)CN(Cc2cn(C)c3ccc(F)cc23)CCO1 (stereo not drawn) read MtTrpRS: -4.959%; ClpP1P2: -6.411%.
CCCn1nccc1C(=O)N1CCN(C2CCc3ccccc3C2)CC1 (stereo not drawn) read MtTrpRS: -1.954%; ClpP1P2: -0.4449%.
Cc1cc(C(=O)NC2(C#N)CCCC2)c(C)n1-c1cccnc1 read MtTrpRS: 1.484%; ClpP1P2: -0.3194%.
CC(=O)N[C@@H]1CN(C(=O)CC2CCOCC2)C[C@H]1O read MtTrpRS: 1.795%; ClpP1P2: 19.24%.
N#Cc1ccnc(N2CCN(C3CCOC3=O)CC2)c1 (stereo not drawn) read MtTrpRS: -4.145%; ClpP1P2: 6.246%.
Oc1cc(CC2COCCN(CC3(O)CCOCC3)C2)ncn1 (stereo not drawn) read MtTrpRS: 28.18%; ClpP1P2: 28.95%.
O=C(CC1CCCO1)NCCc1ccccc1Br (stereo not drawn) read MtTrpRS: -2.414%; ClpP1P2: -8.749%.
O=C(NCCc1nncn1C1CC1)c1cc2ccccn2c1 read MtTrpRS: 0%; ClpP1P2: -70.8%.
CN1C[C@@H](COCC2CC2)[C@H]2CCN(Cc3ccco3)CC[C@H]2C1=O read MtTrpRS: -6.149%; ClpP1P2: -9.301%.
O=C(CCCn1cncn1)N1CCCCC1c1nccs1 (stereo not drawn) read MtTrpRS: -4.924%; ClpP1P2: -1.385%.
c1ccc(CNC[C@H]2COCc3nc4cccnc4n32)cc1 read MtTrpRS: 3.625%; ClpP1P2: -8.378%.
NC(=O)c1ccnc(N2CCN(Cc3ccc(F)cc3Cl)CC2)c1 read MtTrpRS: -0.97%; ClpP1P2: 6.448%.
CCc1csc(C2CCCN(C(=O)c3ccccn3)C2)n1 (stereo not drawn) read MtTrpRS: -2.726%; ClpP1P2: -9.096%.
COCCN(Cc1ccccc1)c1cc(C)ncn1 read MtTrpRS: 2.624%; ClpP1P2: -0.5479%.
CSc1nnc(C2CCN(C(=O)N3CCCC3)CC2)n1C(C)C read MtTrpRS: 0.1302%; ClpP1P2: -2.047%.
CCc1nc(-c2noc3ccc(C(=O)N(C)CCOC)cc23)co1 read MtTrpRS: -2%; ClpP1P2: 3.552%.
N#Cc1ccccc1C(=O)NCCC1CN(Cc2ccco2)CCO1 (stereo not drawn) read MtTrpRS: -2.056%; ClpP1P2: 11.24%.
O=C(Cc1cccs1)N1CCC2(CC1)COCCN2CC1CC1 read MtTrpRS: -0.183%; ClpP1P2: 2.662%.

The first 5 entries again:

* CCc1cc(C(=O)N2CC[C@@H](c3ccc4c(c3)OCO4)[C@H](O)C2)ccn1 : MtTrpRS: 1.926%; ClpP1P2: 15.69%
* COCCNC(=O)Cn1ccc2ccc(F)cc21 : MtTrpRS: -1.573%; ClpP1P2: -16.19%
* CCN1C(=O)CC(c2ccccc2)C12CCN(CC1CCOCC1)CC2 (stereo not drawn) : MtTrpRS: -2.471%; ClpP1P2: -2.568%
* CN1CC(=O)N(c2cccc(F)c2)CC12CCNC2 (stereo not drawn) : MtTrpRS: 0.4359%; ClpP1P2: -3.58%
* CS(=O)(=O)NCCCNC(=O)c1cccnc1O : MtTrpRS: -2.439%; ClpP1P2: 6.157%